Data as given in publication PMC9602169.
No constants are given. Whether binding was seen depends on the method and setting. Binding seen in cells or lysates may run through a third protein. Some results given as binding are weak or reduced against the parent protein; the word gives no strength.

Protein sequences, listed by entry. Tags and fused reporters are not part of them. Lines headed by an entry give the natural chain unless they say otherwise; changes in a name come on top.
UniProt Q01094: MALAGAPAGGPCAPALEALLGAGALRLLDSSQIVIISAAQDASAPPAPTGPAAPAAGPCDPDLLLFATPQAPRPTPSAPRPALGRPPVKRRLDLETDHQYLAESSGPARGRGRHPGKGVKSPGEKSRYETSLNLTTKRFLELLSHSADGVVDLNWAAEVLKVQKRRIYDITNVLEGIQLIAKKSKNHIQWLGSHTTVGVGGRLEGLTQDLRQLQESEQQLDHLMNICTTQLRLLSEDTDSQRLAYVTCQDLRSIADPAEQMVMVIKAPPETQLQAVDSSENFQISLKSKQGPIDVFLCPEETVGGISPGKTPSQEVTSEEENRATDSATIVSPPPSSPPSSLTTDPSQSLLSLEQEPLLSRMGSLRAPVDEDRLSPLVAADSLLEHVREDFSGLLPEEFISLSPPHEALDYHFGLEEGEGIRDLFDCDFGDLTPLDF
UniProt Q92830: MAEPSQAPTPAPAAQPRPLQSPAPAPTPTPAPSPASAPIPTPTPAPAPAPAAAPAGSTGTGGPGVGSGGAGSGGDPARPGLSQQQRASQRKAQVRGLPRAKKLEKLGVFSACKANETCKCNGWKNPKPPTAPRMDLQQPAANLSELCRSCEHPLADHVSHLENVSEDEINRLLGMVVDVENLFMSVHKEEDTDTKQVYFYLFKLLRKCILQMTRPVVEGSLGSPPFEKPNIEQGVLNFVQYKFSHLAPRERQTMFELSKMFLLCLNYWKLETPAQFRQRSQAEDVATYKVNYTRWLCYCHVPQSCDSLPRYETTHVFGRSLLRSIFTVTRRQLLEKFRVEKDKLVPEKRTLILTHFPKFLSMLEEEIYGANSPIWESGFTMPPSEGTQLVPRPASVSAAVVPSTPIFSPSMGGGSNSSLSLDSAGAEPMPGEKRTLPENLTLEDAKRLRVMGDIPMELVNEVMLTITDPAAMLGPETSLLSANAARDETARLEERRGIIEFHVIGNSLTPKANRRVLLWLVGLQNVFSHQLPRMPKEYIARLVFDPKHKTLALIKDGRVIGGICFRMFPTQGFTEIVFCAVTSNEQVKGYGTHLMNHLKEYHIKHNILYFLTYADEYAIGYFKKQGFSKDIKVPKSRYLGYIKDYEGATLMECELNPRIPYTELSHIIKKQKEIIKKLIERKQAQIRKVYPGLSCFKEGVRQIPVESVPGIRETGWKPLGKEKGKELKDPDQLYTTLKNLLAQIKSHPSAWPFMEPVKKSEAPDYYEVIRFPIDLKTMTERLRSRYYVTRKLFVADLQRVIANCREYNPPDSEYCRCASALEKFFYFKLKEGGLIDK

Biological target: E2F transcription factor 1 (E2F1) (human (endogenous in MCF-7, 786-O, NCI-H460)) (UniProt Q01094)
Assay: co-IP; cell lysates incubated with antibody-conjugated beads at 4 °C for 2 h, IgG as control; beads washed and boiled in SDS loading buffer; Western blot

binding: binds
Substance: lysine acetyltransferase 2A (KAT2A) (from UniProt Q92830 1-837)
